Results from US20240108738A1, “BICYCLIC PEPTIDE LIGANDS SPECIFIC FOR NK CELLS” (Bicycle Tx Limited, priority 2021, published 2024).
Part of at least one peptide drawing is inferred or uncertain, most often the ends. Numbered stars: 1 amine (or outer) side, 2 acyl side, 3 side chain; on linkers, the order of the positions; unused ones are H or OH. Bridge positions count the residues as written; N and C are the ends. Square brackets hold non-standard residues; d marks the D form. Peptide text beside a SMILES is read from it. TATA = O=C(CC[*:1])N1CN(C(=O)CC[*:2])CN(C(=O)CC[*:3])C1; Phe(4-NO2) = N[C@@H](Cc1ccc([N+](=O)[O-])cc1)C(=O)O; Phe(4-COOH) = N[C@@H](Cc1ccc(C(=O)O)cc1)C(=O)O; Phe(4-tBu) = CC(C)(C)c1ccc(C[C@H](N)C(=O)O)cc1; Nva(3-Et) = CCC(CC)[C@H](N)C(=O)O; hPhe = N[C@@H](CCc1ccccc1)C(=O)O; 3Pal = N[C@@H](Cc1cccnc1)C(=O)O; Aze = O=C(O)[C@@H]1CCN1

By UniProt entry, the sequences of proteins in these tests, tags left out. Residues count along the entry.
UniProt O76036, 22-304: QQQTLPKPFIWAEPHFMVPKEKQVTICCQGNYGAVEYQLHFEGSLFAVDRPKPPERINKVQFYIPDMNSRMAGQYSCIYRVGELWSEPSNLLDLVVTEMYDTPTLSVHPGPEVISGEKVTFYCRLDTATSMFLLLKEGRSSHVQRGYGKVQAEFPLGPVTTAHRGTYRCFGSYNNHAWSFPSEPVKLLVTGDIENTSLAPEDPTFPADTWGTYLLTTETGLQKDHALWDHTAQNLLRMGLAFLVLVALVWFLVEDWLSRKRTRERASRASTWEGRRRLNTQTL

molecular target: T1, human NKp46-his tagged protein (Homo sapiens, UniProt O76036); assay: NKp46 Fluorescence Polarization (FP) competition binding assay, tracer BCY15035; conditions: competition with 1 nM tracer BCY15035, 40 nM NKp46, read at 60 minutes
T1 construct: His tag; purchased AcroBiosystems

Compound	Ki
CC(C)C[C@@H]1NC(=O)[C@H](CCc2ccccc2)NC(=O)[C@H](CC(=O)O)NC(=O)[C@@H]2CCCN2C(=O)[C@H](CC(C)C)NC(=O)[C@H](Cc2ccc(O)cc2)NC(=O)[C@@H](NC(=O)[C@H](C)N)CSCCC(=O)N2CN3CN(C2)C(=O)CCSC[C@@H](C(=O)N[C@@H](C)C(N)=O)NC(=O)[C@H](Cc2ccc(O)cc2)NC(=O)[C@H](CCC(=O)O)NC(=O)[C@H](CC(=O)O)NC(=O)CNC(=O)[C@H](CSCCC3=O)NC1=O [BCY16145, A-(SEQ ID NO: 51)-A] (H-ACYLPD[hPhe]LCGDEYCA-NH2; linker 2-9-14 via TATA)	> 5 µM
CC(C)C[C@@H]1NC(=O)[C@H](Cc2ccc(C(C)(C)C)cc2)NC(=O)[C@H](CC(=O)O)NC(=O)[C@@H]2CCCN2C(=O)[C@H](CC(C)C)NC(=O)[C@H](Cc2ccc(O)cc2)NC(=O)[C@@H](NC(=O)[C@H](C)N)CSCCC(=O)N2CN3CN(C2)C(=O)CCSC[C@@H](C(=O)N[C@@H](C)C(N)=O)NC(=O)[C@H](Cc2ccc(O)cc2)NC(=O)[C@H](CCC(=O)O)NC(=O)[C@H](CC(=O)O)NC(=O)CNC(=O)[C@H](CSCCC3=O)NC1=O [BCY16141, A-(SEQ ID NO: 47)-A] (H-ACYLPD[Phe(4-tBu)]LCGDEYCA-NH2; linker 2-9-14 via TATA)	> 5 µM
CC(C)C[C@@H]1NC(=O)[C@H](Cc2cccnc2)NC(=O)[C@H](CC(=O)O)NC(=O)[C@@H]2CCCN2C(=O)[C@H](CC(C)C)NC(=O)[C@H](Cc2ccc(O)cc2)NC(=O)[C@@H](NC(=O)[C@H](C)N)CSCCC(=O)N2CN3CN(C2)C(=O)CCSC[C@@H](C(=O)N[C@@H](C)C(N)=O)NC(=O)[C@H](Cc2ccc(O)cc2)NC(=O)[C@H](CCC(=O)O)NC(=O)[C@H](CC(=O)O)NC(=O)CNC(=O)[C@H](CSCCC3=O)NC1=O [BCY15645, A-(SEQ ID NO: 22)-A] (H-ACYLPD[3Pal]LCGDEYCA-NH2; linker 2-9-14 via TATA)	> 5 µM
CC(C)C[C@@H]1NC(=O)[C@H](Cc2ccc([N+](=O)[O-])cc2)NC(=O)[C@H](CC(=O)O)NC(=O)[C@@H]2CCCN2C(=O)[C@H](CC(C)C)NC(=O)[C@H](Cc2ccc(O)cc2)NC(=O)[C@@H](NC(=O)[C@H](C)N)CSCCC(=O)N2CN3CN(C2)C(=O)CCSC[C@@H](C(=O)N[C@@H](C)C(N)=O)NC(=O)[C@H](Cc2ccc(O)cc2)NC(=O)[C@H](CCC(=O)O)NC(=O)[C@H](CC(=O)O)NC(=O)CNC(=O)[C@H](CSCCC3=O)NC1=O [BCY16137, A-(SEQ ID NO: 43)-A] (H-ACYLPD[Phe(4-NO2)]LCGDEYCA-NH2; linker 2-9-14 via TATA)	> 5 µM
CC(C)C[C@@H]1NC(=O)[C@H](Cc2ccc(C(=O)O)cc2)NC(=O)[C@H](CC(=O)O)NC(=O)[C@@H]2CCCN2C(=O)[C@H](CC(C)C)NC(=O)[C@H](Cc2ccc(O)cc2)NC(=O)[C@@H](NC(=O)[C@H](C)N)CSCCC(=O)N2CN3CN(C2)C(=O)CCSC[C@@H](C(=O)N[C@@H](C)C(N)=O)NC(=O)[C@H](Cc2ccc(O)cc2)NC(=O)[C@H](CCC(=O)O)NC(=O)[C@H](CC(=O)O)NC(=O)CNC(=O)[C@H](CSCCC3=O)NC1=O [BCY16139, A-(SEQ ID NO: 45)-A] (H-ACYLPD[Phe(4-COOH)]LCGDEYCA-NH2; linker 2-9-14 via TATA)	> 5 µM

molecular target: T2, Fc-tagged human NKp46 (Homo sapiens, UniProt O76036); assay: NKp46 SPR assay (Method 1 and/or Method 2); assay type: binding; conditions: SPR Method 1 and/or Method 2, Table 3B
T2 construct: purchased ACROBiosystems NC1-H5257
Protocol: SPR experiments were performed to determine ka (M^−1s^−1), kd (s^−1), KD (nM) values (where measurable) of various bicyclic peptides to immobilised NKp46.
For analysis of peptide binding to NKp46, a Biacore 3000 instrument was used with a Cytiva Streptavidin chip. Capture of the protein (recombinant human NKp46-Fc fusion biotinylated via Avi-tag) was carried out at 25° C. with HBS-N (10 mM HEPES, 0.15 M NaCl, pH 7.4) as the running buffer and biotinylated NKp46 was captured to a level of 400-800 RU using a dilution of protein to 0.2 μM in buffer. Buffer was then changed to PBS/0.05% Tween 20 and a dilution series of the peptides was prepared in this buffer with a final DMSO concentration of 0.5% with a top peptide concentration of 100 nM-5000 nM and 6 further 2 or 3-fold dilutions. The SPR analysis was run at 25° C. and a flow rate of 50 μl/min with 60 seconds association and 200-400 seconds dissociation time. Data were corrected for DMSO excluded volume effects. All data were double-referenced for blank injections and reference surface using standard processing procedures and data processing and kinetic fitting were performed using Scrubber software, version 2.0c (BioLogic Software). Data were fitted using simple 1:1 binding model allowing for mass transport effects where appropriate.
Peptides were tested against Fc-tagged human NKp46 (ACROBiosystems, cat no. NC1-H5257).
For analysis of peptide binding, a Biacore 8k+ instrument was used with a CM5 chip (Cytiva). All experiments were carried out at 25° C. Anti-human IgG (Fc) antibody (Cytiva) was immobilized on all flow cells by standard amine coupling chemistry. The running buffer was HBS-N(Cytiva, 10 mM HEPES, 0.15 M NaCl, pH 7.4) and the flow rate was 10 μL/min. The carboxymethyl dextran surface was activated with a 1:1 ratio of 0.4 M 1-ethyl-3-(3-dimethylaminopropyl) carbodiimide hydrochloride (EDC)/0.1 M N-hydroxy succinimide (NHS) (Cytiva) for 420s. […] Residual activated groups were blocked with a 420 s injection of 1 M ethanolamine (pH 8.5). The final surface density was 3000-5000 RU. […]

Compound	Kd
CC[C@H](C)[C@@H]1NC(=O)CNC(=O)[C@H](CC2CNc3ccccc32)NC(=O)[C@H](CCC(N)=O)NC(=O)[C@@H]2CSCCC(=O)N3CN(CN(C3)C(=O)CCSC[C@@H](C(=O)N[C@@H](C)C(N)=O)NC1=O)C(=O)CCSC[C@H](NC(=O)[C@H](C)N)C(=O)N[C@@H](CC(=O)O)C(=O)N[C@@H](CC(C)C)C(=O)N[C@@H]([C@@H](C)O)C(=O)N[C@@H]([C@@H](C)O)C(=O)N[C@@H](Cc1c[nH]cn1)C(=O)N[C@@H](CC(N)=O)C(=O)N2 (some centres unmarked) [BCY19730, A-(SEQ ID NO: 164)-A]	> 10 µM
CSCC[C@@H]1NC(=O)[C@@H]2CSCCC(=O)N3CN(CN(C3)C(=O)CCSC[C@@H](C(=O)N[C@@H](C)C(N)=O)NC(=O)[C@H](C(C)C)NC(=O)[C@H](CCCCN)NC(=O)CNC(=O)[C@H]([C@@H](C)O)NC(=O)[C@H](CC(C)C)NC1=O)C(=O)CCSC[C@H](NC(=O)[C@H](C)N)C(=O)N[C@@H](CC(N)=O)C(=O)N[C@@H](CC(C)C)C(=O)N[C@@H](CCC(N)=O)C(=O)N[C@@H](C)C(=O)N1CC[C@H]1C(=O)N2 [BCY19700, A-(SEQ ID NO: 91)-A] (H-ACNLQA[Aze]CMLTGKVCA-NH2; linker 2-8-15 via TATA)	> 10 µM
CCC(CC)[C@@H]1NC(=O)CNC(=O)[C@H](Cc2c[nH]c3ccccc23)NC(=O)[C@H](CCC(N)=O)NC(=O)[C@@H]2CSCCC(=O)N3CN(CN(C3)C(=O)CCSC[C@@H](C(=O)N[C@@H](C)C(N)=O)NC1=O)C(=O)CCSC[C@H](NC(=O)[C@H](C)N)C(=O)N[C@@H](CC(=O)O)C(=O)N[C@@H](CC(C)C)C(=O)N[C@@H]([C@@H](C)O)C(=O)N[C@@H]([C@@H](C)O)C(=O)N[C@@H](Cc1c[nH]cn1)C(=O)N[C@@H](CC(N)=O)C(=O)N2 [BCY19733, A-(SEQ ID NO: 166)-A] (H-ACDLTTHNCQWG[Nva(3-Et)]CA-NH2; linker 2-9-14 via TATA; N-terminus and C-terminus assumed)	0.354 µM
